Earlier results, collected in US20170296498A1, “Rapid Relief of Motor Fluctuations in Parkinson's Disease” (Civitas Therapeutics, Inc., priority 2014, published 2017).

Settings: even when co-administered with carbidopa; cited from earlier work

N[C@@H](Cc1ccc(O)c(O)c1)C(=O)O [L-Dopa, levodopa]
plasma half-life: 1 to 3 h
